Laboratory results taken from paper PMC4522599.
No constants are given. Whether binding was seen depends on the method and setting. Binding calls can cover weak binding; strength is not graded here.

Assays:
[1] = biological target: In trans activated C25A-cathepsin S (human); assay: surface acoustic wave biosensor (sam5BLUE); C25A-cathepsin S immobilized on a sam5 chip; cystatin C injected as a check of structural integrity; conditions not stated; both purified
[2] = biological target: In trans activated C25A-cathepsin S (human); assay: surface acoustic wave biosensor (sam5BLUE); C25A-cathepsin S immobilized; heat-destabilized Bet v 1 (10 min at 60 °C, spin-filtered) injected, 1a at 10 to 100 μM, 1d at 2.5 to 40 μM; pH 6.7; both purified
[3] = biological target: In trans activated C25A-cathepsin S (human); assay: surface acoustic wave biosensor (sam5BLUE); C25A-cathepsin S immobilized; Bet v 1 at 10 μM at acidic pH (20 mM acetic acid pH 5.5 or pH 4.5, 50 mM NaCl); both purified
[4] = biological target: In trans activated C25A-cathepsin S (human); assay: surface acoustic wave biosensor (sam5BLUE); C25A-cathepsin S immobilized; Bet v 1 at 10 μM at near neutral pH (20 mM Tris-HCl pH 8.5, 20 mM PBS pH 7.4, 20 mM imidazole pH 6.7; 50 mM NaCl except in PBS); both purified

Binder | binding [1] | binding [2] | binding [3] | binding [4]
cystatin C (protein, UniProt P01034 27-146) SSPGKPPRLVGGPMDASVEEEGVRRALDFAVGEYNKASNDMYHSRALQVVRARKQIVAGVNYFLDVELGRTTCTKTQPNLDNCPFHDQPHLKRKAFCSFQIYAVPWQGTMTLSKSTCQDA | binds |  |  | 
Bet v 1a (Bet v 1.0101), major birch pollen allergen (protein, UniProt P15494 2-160) GVFNYETETTSVIPAARLFKAFILDGDNLFPKVAPQAISSVENIEGNGGPGTIKKISFPEGFPFKYVKDRVDEVDHTNFKYNYSVIEGGPIGDTLEKISNEIKIVATPDGGSILKISNKYHTKGDHEVKAEQVKASKEMGETLLRAVESYLLAHSDAYN |  | binds | binds | binds weakly
Bet v 1d (Bet v 1.0401), hypoallergenic isoform of the major birch pollen allergen (protein, UniProt P43177 1-160) MGVFNYEIETTSVIPAARLFKAFILDGDNLVPKVAPQAISSVENIEGNGGPGTIKKINFPEGFPFKYVKDRVDEVDHTNFKYNYSVIEGGPVGDTLEKISNEIKIVATPDGGCVLKISNKYHTKGNHEVKAEQVKASKEMGETLLRAVESYLLAHSDAYN |  |  | binds | binds
